Data source: PubChem BioAssay AID504774 (Drosophila RNAi Screening Center, 2011)

Screen: 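Knock-downs that shift viability of MMS-exposed cells relative to untreated ones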 (primary screen)
Cell system: Drosophila Kc167 cells
Reagent: long dsRNA against Drosophila genes, about 0.25 µg dsRNA per well
Duration: about 6 days: 3 days knock-down, then 3 days with or without MMS
Challenge: methyl methanesulphonate 0.004% (w/v) for 3 days after knock-down
Read-out: 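Viability in wells given MMS, read as ATP luminescence, normalised by quantiles plate by plate and averaged across replicates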
Direction: mean viability with MMS and viability with MMS: higher = more surviving cells after MMS
In all, the deposit lists about 23,000 reagents; shown is a random part of those with a known target gene and a result. 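Values are quantile-normalised luminescence on an arbitrary scale; higher means more cells surviving MMS.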 A plus sign joins genes that one reagent is predicted to hit. Reagent sequences are not shown.

The first 6 records as a preview:
Gene | dsRNA | mean viability with MMS | viability with MMS, replicate 1 | viability with MMS, replicate 2
CG12391 | DRSC06147 | 3.52e6 | 4.08e6 | 3.88e6
Naa30B | DRSC08245 | 3.59e6 | 4.07e6 | 4.04e6
nxf4 | DRSC12548 | 3.35e6 | 3.90e6 | 3.76e6
ImpL2 | DRSC08666 | 3.55e6 | 4.12e6 | 3.94e6
nanos | DRSC17018 | 3.33e6 | 3.83e6 | 3.77e6
CG12935 + Nop10 | DRSC07025 | 3.46e6 | 3.86e6 | 4.00e6

The list itself, repeating the preview:
Gene | dsRNA | mean viability with MMS | viability with MMS, replicate 1 | viability with MMS, replicate 2
CG12391 | DRSC06147 | 3.52e6 | 4.08e6 | 3.88e6
Naa30B | DRSC08245 | 3.59e6 | 4.07e6 | 4.04e6
nxf4 | DRSC12548 | 3.35e6 | 3.90e6 | 3.76e6
ImpL2 | DRSC08666 | 3.55e6 | 4.12e6 | 3.94e6
nanos | DRSC17018 | 3.33e6 | 3.83e6 | 3.77e6
CG12935 + Nop10 | DRSC07025 | 3.46e6 | 3.86e6 | 4.00e6
CG5746 | DRSC15868 | 3.51e6 | 4.05e6 | 3.93e6
Tango9 | DRSC14173 | 3.61e6 | 4.13e6 | 4.08e6
CG6277 | DRSC16008 | 3.48e6 | 3.94e6 | 3.92e6
Vhl | DRSC07716 | 3.72e6 | 4.27e6 | 4.20e6
CG13999 | DRSC02331 | 3.63e6 | 4.08e6 | 4.12e6
Nep3 | DRSC20685 | 3.47e6 | 4.01e6 | 3.88e6
Oxp | DRSC06712 | 3.64e6 | 4.18e6 | 4.03e6
dve | DRSC04680 | 3.36e6 | 3.83e6 | 3.73e6
CG11474 | DRSC04112 | 3.69e6 | 4.31e6 | 4.12e6
CG11693 | DRSC14353 | 3.36e6 | 3.83e6 | 3.83e6
CG7148 | DRSC11802 | 3.53e6 | 4.05e6 | 3.94e6
Twdlalpha | DRSC19914 | 3.47e6 | 3.92e6 | 3.93e6
CG10026 | DRSC02010 | 3.62e6 | 4.06e6 | 4.16e6
Coq6 | DRSC03040 | 3.67e6 | 4.06e6 | 4.31e6
CG2150 | DRSC15420 | 3.66e6 | 4.14e6 | 4.15e6
milt | DRSC00965 | 3.24e6 | 3.64e6 | 3.67e6
milt | DRSC00966 | 3.31e6 | 3.68e6 | 3.83e6
milt | DRSC02281 | 3.65e6 | 4.23e6 | 4.08e6
Agps | DRSC05984 | 3.36e6 | 3.96e6 | 3.58e6
CG1208 | DRSC12190 | 3.44e6 | 3.85e6 | 3.91e6
AspRS-m | DRSC02646 | 3.66e6 | 4.21e6 | 4.05e6
sim | DRSC17054 | 3.66e6 | 4.15e6 | 4.16e6
fmt | DRSC09717 | 3.46e6 | 3.92e6 | 3.92e6
Acsx3 | DRSC14309 | 3.51e6 | 3.99e6 | 3.99e6
Fhos | DRSC08943 | 3.54e6 | 4.04e6 | 3.99e6
Fhos | DRSC10545 | 3.65e6 | 4.20e6 | 4.07e6
Fhos | DRSC10546 | 3.64e6 | 4.09e6 | 4.16e6
Fhos | DRSC10547 | 3.71e6 | 4.05e6 | 4.36e6
RpL8 | DRSC08532 | 3.02e6 | 3.58e6 | 3.57e6
RpL8 | DRSC08695 | 2.94e6 | 3.58e6 | 3.58e6
CG3347 | DRSC00597 | 3.76e6 | 4.28e6 | 4.09e6
CG10102 (retired record) | DRSC05963 | 3.39e6 | 3.91e6 | 4.02e6
CG5122 | DRSC02816 | 3.57e6 | 4.03e6 | 4.07e6
CG15080 | DRSC06511 | 3.37e6 | 3.72e6 | 3.85e6
sqa | DRSC06693 | 3.68e6 | 4.21e6 | 4.13e6
sqa | DRSC21635 | 3.70e6 | 4.24e6 | 4.09e6
CG31823 | DRSC01887 | 3.63e6 | 4.14e6 | 4.07e6
Tpc1 | DRSC15614 | 3.65e6 | 4.15e6 | 4.04e6
Tpc1 | DRSC16074 | 3.62e6 | 4.06e6 | 4.17e6
CG31549 | DRSC21688 | 3.57e6 | 4.05e6 | 4.05e6
snRNP-U1-70K | DRSC03612 | 3.73e6 | 4.05e6 | 4.06e6
snRNP-U1-70K | DRSC22071 | 3.18e6 | 3.81e6 | 3.80e6
CG12947 | DRSC14575 | 3.82e6 | 4.30e6 | 4.17e6
CG33458 | DRSC22891 | 3.51e6 | 3.99e6 | 4.00e6
mRpS26 | DRSC10823 | 3.60e6 | 4.10e6 | 4.07e6
vri | DRSC03633 | 2.74e6 | 3.23e6 | 3.28e6
vri | DRSC23174 | 3.61e6 | 4.18e6 | 4.02e6
JhI-21 | DRSC02161 | 3.42e6 | 3.88e6 | 3.82e6
CG12003 | DRSC08214 | 3.59e6 | 4.12e6 | 4.01e6
CG12155 | DRSC17826 | 3.45e6 | 3.97e6 | 3.76e6
CG12155 | DRSC23294 | 3.78e6 | 4.31e6 | 4.25e6
CG13114 | DRSC02212 | 3.70e6 | 4.24e6 | 4.16e6
CG15337 | DRSC18020 | 3.62e6 | 4.15e6 | 4.05e6
CG15337 | DRSC22778 | 3.57e6 | 4.01e6 | 4.04e6
NAAT1 | DRSC18300 | 3.67e6 | 4.11e6 | 4.21e6
ncd | DRSC17012 | 3.36e6 | 3.83e6 | 3.82e6
ubl | DRSC04998 | 3.27e6 | 3.75e6 | 3.72e6
CG11263 | DRSC09832 | 3.61e6 | 4.04e6 | 4.12e6
Rev1 | DRSC08264 | 3.39e6 | 3.91e6 | 3.81e6
CG18327 | DRSC06722 | 3.43e6 | 3.99e6 | 3.94e6
CG15548 | DRSC15086 | 3.53e6 | 3.96e6 | 4.03e6
Cyp4d20 | DRSC08654 | 3.57e6 | 4.10e6 | 3.98e6
